Measured values reported in PMC6797205.
No constants are given. Whether binding was seen depends on the method and setting. Binding seen in cells or lysates may run through a third protein. Binding can be weak; no strength is given. Sequences can lack the tags named with a protein.

Tests used:
[1] = target: CaARF L523S/F524S (mutated in the KLFG BRD motif), MBP-tagged (Chlorokybus atmophyticus); assay: pull-down; co-purification: MBP-tagged CaARF (wt or mutants, 90 ug) mixed with His-tagged AtTPL202 (or mutant, 70 ug) for 1 h at 4 C in CAPS 20 mM pH 9.6, Tris-HCl 100 mM pH 8, NaCl 50 mM, TCEP 1 mM; complexes held through MBP on Dextrin-Sepharose, washed, eluted with 10 mM maltose, SDS-PAGE; both purified
[2] = target: CaARF L492A/L493A (mutated in the LPLLPS EAR-like motif), MBP-tagged (Chlorokybus atmophyticus); assay: as above

B1: A. thaliana TOPLESS N-terminal region (AtTPL202), His-tagged (domain or fragment, UniProt Q94AI7 3-184)
chain: SLSRELVFLILQFLDEEKFKETVHKLEQESGFFFNMKYFEDEVHNGNWDEVEKYLSGFTKVDDNRYSMKIFFEIRKQKYLEALDKHDRPKAVDILVKDLKVFSTFNEELFKEITQLLTLENFRENEQLSKYGDTKSARAIMLVELKKLIEANPLFRDKLQFPTLRNSRLRTLINQSLNWQHQ
binding [1]: binds
binding [2]: binds
